Earlier results, collected in patent publication US20050065595A1, “Implants containing combretastatin a-4” (priority 2001, published 2005).
At least one structure is not confirmed: it was looked up by name or label, or the drawing left a doubt.

Tested on: tumors
Settings: animal experiments; cited from earlier work

COc1ccc(/C=C\c2cc(OC)c(OC)c(OC)c2)cc1OP(=O)([O-])[O-].[Na+].[Na+] [CA4P, disodium combretastatin-A4-3-O-phosphate]
doses at which the anti-tumor effect was observed: 5 and 50
